Results are given in words; binding and its absence hold for the method and conditions named. For part of these data: In cells and extracts the contact can be indirect. Some results given as binding are weak or reduced against the parent protein; the word gives no strength. For part of these data: Sequences can lack the tags named with a protein.
Columns and labels:
[1] = molecular target: T1, PNUTS (human (endogenous in K562)) (UniProt Q96QC0); experiment: co-IP; antibody against PNUTS cross-linked to Dynabeads protein A; K562 nuclear extract of control and TOX4 KO cells; overnight at 4 °C; washed 5 times with BC-200 (200 mM KCl, 0.1% NP-40, pH 7.9); Western blot
T1 sequence: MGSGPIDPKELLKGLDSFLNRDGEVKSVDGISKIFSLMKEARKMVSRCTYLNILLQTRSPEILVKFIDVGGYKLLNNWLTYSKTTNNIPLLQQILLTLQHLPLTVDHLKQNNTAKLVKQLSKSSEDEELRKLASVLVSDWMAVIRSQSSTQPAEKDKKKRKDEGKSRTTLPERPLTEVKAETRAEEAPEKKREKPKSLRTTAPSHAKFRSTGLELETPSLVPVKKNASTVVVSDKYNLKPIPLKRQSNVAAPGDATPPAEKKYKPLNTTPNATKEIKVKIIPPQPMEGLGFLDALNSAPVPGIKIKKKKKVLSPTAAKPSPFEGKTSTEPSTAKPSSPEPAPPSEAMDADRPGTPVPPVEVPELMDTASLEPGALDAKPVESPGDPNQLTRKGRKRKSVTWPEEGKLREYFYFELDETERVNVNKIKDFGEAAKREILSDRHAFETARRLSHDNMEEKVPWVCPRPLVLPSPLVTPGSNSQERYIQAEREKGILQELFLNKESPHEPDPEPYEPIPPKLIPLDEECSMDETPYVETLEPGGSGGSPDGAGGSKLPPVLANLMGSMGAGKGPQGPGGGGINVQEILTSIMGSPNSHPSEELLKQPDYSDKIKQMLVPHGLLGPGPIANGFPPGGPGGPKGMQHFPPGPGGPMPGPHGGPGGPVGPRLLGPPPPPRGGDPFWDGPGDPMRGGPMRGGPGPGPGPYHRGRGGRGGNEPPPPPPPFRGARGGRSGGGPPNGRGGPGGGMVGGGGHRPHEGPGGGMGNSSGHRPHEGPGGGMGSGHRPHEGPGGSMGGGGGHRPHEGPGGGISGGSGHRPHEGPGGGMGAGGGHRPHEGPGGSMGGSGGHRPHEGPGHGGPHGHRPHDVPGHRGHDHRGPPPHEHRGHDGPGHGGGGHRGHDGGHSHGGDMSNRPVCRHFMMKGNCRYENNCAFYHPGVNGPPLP

Sequences of proteins named here, by UniProt entry; tags and fusion partners are left off.
UniProt Q6UXN9: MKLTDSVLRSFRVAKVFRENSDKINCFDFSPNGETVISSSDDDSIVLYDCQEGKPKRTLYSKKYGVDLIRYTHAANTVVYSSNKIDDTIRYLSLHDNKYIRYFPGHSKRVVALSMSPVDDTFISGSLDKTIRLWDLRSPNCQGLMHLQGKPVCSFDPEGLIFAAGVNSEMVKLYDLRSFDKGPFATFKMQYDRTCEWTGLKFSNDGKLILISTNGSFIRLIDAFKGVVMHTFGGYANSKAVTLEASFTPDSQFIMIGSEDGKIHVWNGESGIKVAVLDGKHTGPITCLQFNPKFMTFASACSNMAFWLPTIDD
UniProt P36873: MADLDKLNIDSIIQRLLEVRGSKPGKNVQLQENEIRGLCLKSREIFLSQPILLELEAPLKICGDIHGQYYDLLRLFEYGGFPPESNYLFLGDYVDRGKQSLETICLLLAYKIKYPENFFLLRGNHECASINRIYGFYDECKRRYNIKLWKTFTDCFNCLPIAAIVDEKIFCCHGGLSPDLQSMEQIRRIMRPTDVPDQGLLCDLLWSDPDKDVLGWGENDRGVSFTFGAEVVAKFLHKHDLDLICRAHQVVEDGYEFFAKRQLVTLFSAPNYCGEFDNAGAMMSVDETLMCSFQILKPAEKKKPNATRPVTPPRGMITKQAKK

3× Flag-tagged TOX4 = molecular target: T2, 3× Flag-tagged TOX4 (UniProt O94842); experiment: co-IP; in vitro binding assay of individually purified TOX4 and PP1α, β or γ; PP1 co-immunoprecipitated with TOX4; Western blot, quantified by ImageJ; both purified
T2 sequence: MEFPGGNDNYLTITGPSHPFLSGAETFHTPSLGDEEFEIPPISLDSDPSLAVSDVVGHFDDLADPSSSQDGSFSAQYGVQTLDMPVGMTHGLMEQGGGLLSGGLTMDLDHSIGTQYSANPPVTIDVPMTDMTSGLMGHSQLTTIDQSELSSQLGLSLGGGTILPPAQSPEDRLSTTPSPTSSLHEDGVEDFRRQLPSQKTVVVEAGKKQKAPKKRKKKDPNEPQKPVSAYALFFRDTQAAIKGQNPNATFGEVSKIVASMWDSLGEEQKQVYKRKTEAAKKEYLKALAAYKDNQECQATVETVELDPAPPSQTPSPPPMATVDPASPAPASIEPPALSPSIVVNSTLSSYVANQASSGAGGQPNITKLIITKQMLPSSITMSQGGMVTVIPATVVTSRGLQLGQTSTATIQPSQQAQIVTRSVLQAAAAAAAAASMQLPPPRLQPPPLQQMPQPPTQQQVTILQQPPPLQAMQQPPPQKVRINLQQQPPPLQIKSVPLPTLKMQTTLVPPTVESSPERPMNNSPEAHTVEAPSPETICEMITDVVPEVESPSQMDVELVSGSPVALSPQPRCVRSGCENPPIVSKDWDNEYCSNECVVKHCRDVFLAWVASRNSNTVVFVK

| Substance | binding [1] | binding (3× Flag-tagged TOX4) |
| --- | --- | --- |
| WDR82 (from UniProt Q6UXN9 1-313) | binds |  |
| PP1γ (endogenous) (from UniProt P36873 1-323) (enzyme) | binds |  |
| His-tagged PP1γ (from UniProt P36873 1-323) (enzyme) |  | binds |

From paper PMC8975821
